Measurements taken from PubChem BioAssay AID588590 (National Center for Advancing Translational Sciences (NCATS), 2011).
Hit rate of the full screen: of about 390,000 compounds, about 4,000 (1%) were called active. This list was built around the results that the source calls inconclusive (neither active nor inactive); the mix of calls is not that of the screen. Calls follow the shape of the dose curve; as a rule, active = well fitted inhibition curve with a large enough effect; inconclusive = small, poorly fitted or top-dose-only effect, or another doubt; inactive = no such curve, though single readings can be large or run the other way. Where the call is inconclusive, the potency comes from a doubtful curve fit.

The chains behind the UniProt entries cited, without tags or fusion partners. Where a name states a change or a piece, a line headed by the entry shows the natural chain unless it says otherwise.
UniProt Q9UNA4: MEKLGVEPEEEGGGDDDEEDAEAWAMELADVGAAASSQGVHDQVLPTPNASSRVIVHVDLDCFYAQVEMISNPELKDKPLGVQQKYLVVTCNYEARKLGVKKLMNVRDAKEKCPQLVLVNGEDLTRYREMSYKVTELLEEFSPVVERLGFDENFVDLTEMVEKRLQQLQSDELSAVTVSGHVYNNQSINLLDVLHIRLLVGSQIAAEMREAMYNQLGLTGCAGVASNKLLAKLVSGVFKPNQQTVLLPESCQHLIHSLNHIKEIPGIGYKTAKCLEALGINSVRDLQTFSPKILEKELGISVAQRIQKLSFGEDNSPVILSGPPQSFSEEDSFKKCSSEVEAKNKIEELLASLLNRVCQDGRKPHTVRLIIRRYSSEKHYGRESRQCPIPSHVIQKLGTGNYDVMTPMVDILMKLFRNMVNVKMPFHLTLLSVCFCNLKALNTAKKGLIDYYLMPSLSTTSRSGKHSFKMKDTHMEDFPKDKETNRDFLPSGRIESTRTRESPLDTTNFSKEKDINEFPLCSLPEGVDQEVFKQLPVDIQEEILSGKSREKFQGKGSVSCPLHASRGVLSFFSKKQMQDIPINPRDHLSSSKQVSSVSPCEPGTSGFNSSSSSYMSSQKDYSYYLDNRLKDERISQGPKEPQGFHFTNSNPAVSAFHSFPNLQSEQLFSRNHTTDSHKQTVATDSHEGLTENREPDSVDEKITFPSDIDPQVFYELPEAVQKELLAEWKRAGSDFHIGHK

Target: DNA polymerase iota (Homo sapiens) (UniProt Q9UNA4)
Experiment: qHTS for Inhibitors of Polymerase Iota
Conditions: Pol iota fluorescent replication assay, 10 min; series mostly up to 115 µM
Procedure, shortened: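 Fluorescent replication assay read twice, at 0 min and 10 min after adding 50 nM (final) substrate. Enzyme (10 nM) and compounds were first incubated 15 min at room temperature; enzyme-free buffer wells were negative controls.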
Potency is read from the fitted curve at half-maximal effect.

Potency, inconclusive:
CCOC(=O)c1c(C)[nH]c(C)c1C(=O)COc1ccc(NC(=O)c2ccco2)cc1 39.8 µM [inhibitor, single point]
Cc1nc(CN2CCCCC2)cc(=O)[nH]1 89.1 µM [inhibitor, partial curve, poor fit]
Cc1cc(C(=O)COC(=O)c2ccncc2)c(C)n1Cc1ccco1 17.8 µM [inhibitor, full curve]
CC(C)(C)NC(=O)CSc1nnc(-c2ccco2)n1Cc1ccco1 70.8 µM [inhibitor, single point]
N#C/C(=C(/O)CCl)c1nc2c(s1)CCc1ccccc1-2 17.8 µM [inhibitor, partial curve, poor fit]
COc1cc(/C=C/[N+](=O)[O-])ccc1OCc1cccc(C(=O)O)c1 7.08 µM [inhibitor, full curve, poor fit]
CCOc1ccc(CCNC(=O)c2ccc3c(c2)sc2nc(-c4ccc(F)cc4)cn23)cc1OCC 3.98 µM [inhibitor, partial curve, poor fit]
O=C(CS)Nc1ccc2ccccc2c1 14.1 µM [inhibitor, partial curve, poor fit]
Cc1ccc(Cl)cc1NC(=O)Cn1ncc2c(C)n(Cc3ccccc3F)c(C)c2c1=O 63.1 µM [inhibitor, partial curve, poor fit]
O=C(Nc1cc(C(=O)Nc2ccccc2C(=O)O)cc(C(=O)Nc2ccccc2C(=O)O)c1)c1ccccc1 56.2 µM [inhibitor, partial curve, poor fit]
C=CCCCCCCCCC(=O)NN 89.1 µM [inhibitor, single point]
C#CCOCCOCCOCCNc1nc(N2CCN(C(=O)C([C@@H](C)CC)n3cc(C(N)COC(=O)C(F)(F)F)nn3)CC2)nc(N2CCN(C(=O)[C@H](CCCCN)n3cc(C(N)CC(C)C)nn3)CC2)n1 (stereo not given in full) 14.1 µM [inhibitor, partial curve, poor fit]
Cc1ccc(NC(=O)c2cnn(-c3ccccc3)c2C)cc1 3.16 µM [inhibitor, partial curve, poor fit]
CC(=O)N1C(=O)/C(=C2\SC(=S)N(NC(=O)c3ccc(O)cc3)C2=O)c2ccccc21 15.8 µM [inhibitor, partial curve, poor fit]
O=C1NC(=S)NC(=O)C1Nc1ccc(Cl)cc1 39.8 µM [inhibitor, single point]
COc1cccc(CNC(=O)c2nnn(CC(=O)Nc3ccc(Br)cc3)c2N)c1 39.8 µM [inhibitor, partial curve]
COc1cc(/C=C2/C(=N)N3C(=NC2=O)SN=C3S(C)(=O)=O)ccc1OC(=O)c1ccco1 15.8 µM [inhibitor, partial curve, poor fit]
CC1CC(C)CN(CCOCCSc2ccc(Cl)cc2)C1 (stereo not given) 89.1 µM [inhibitor, partial curve, poor fit]
S=c1[nH]c2ccccc2n2c(=S)[nH]nc12 15.8 µM [inhibitor, full curve, poor fit]
CCC(=O)OC1(C)C(=O)C2=COC(c3ccc(OC)cc3)=CC2=C(Br)C1=O (stereo not given) 22.4 µM [inhibitor, full curve, poor fit]
O=C1[C@@H](c2ccccc2)[C@@H](c2ccccc2)N1c1cccnc1 39.8 µM [inhibitor, single point]
O=C(c1ccc(S(=O)(=O)N2CCC(c3nc4ccccc4[nH]3)CC2)cc1)N1CCOCC1 31.6 µM [inhibitor, partial curve, poor fit]
COc1cccc(SCc2noc(C(=O)NCc3ccccc3)c2C(=O)NCc2ccccc2)c1 35.5 µM [inhibitor, single point]
COc1cccc(C2CC(=O)Nc3c2c(=O)n(C)c2nc4ccccc4n32)c1 (stereo not given) 89.1 µM [inhibitor, single point]
COc1ccc(CNC(C)C23CC4CC(CC(C4)C2)C3)c(OC)c1OC (stereo not given) 15.8 µM [inhibitor, partial curve, poor fit]
O=C(CNC(=O)c1ccccc1F)N/N=C/c1cc(Br)ccc1OC(=O)/C=C/c1ccco1 56.2 µM [inhibitor, partial curve, poor fit]
CCC(C)N(C)C(=O)c1cc2ccccc2c(-c2ccccc2Cl)n1 (stereo not given) 89.1 µM [inhibitor, single point]
CC(OC(=O)c1ccc(C#N)cc1)C(=O)Nc1ccc(Cl)cn1 (stereo not given) 89.1 µM [inhibitor, single point]
Cc1ccc(C)c(OCCCC(=O)Nc2ccccc2C(N)=O)c1 89.1 µM [inhibitor, single point]

Structures shown so far that have an aryl thioether with sulfur outside any ring:
Potency, inconclusive:
CC(C)(C)NC(=O)CSc1nnc(-c2ccco2)n1Cc1ccco1 70.8 µM [inhibitor, single point]
CC1CC(C)CN(CCOCCSc2ccc(Cl)cc2)C1 (stereo not given) 89.1 µM [inhibitor, partial curve, poor fit]
COc1cccc(SCc2noc(C(=O)NCc3ccccc3)c2C(=O)NCc2ccccc2)c1 35.5 µM [inhibitor, single point]

Following part:

Potency, inactive:
CC1CCc2nn(CC(=O)Nc3cccc(C(F)(F)F)c3)c(=O)cc2C1 (stereo not given)
O=C(CSc1nnnn1-c1ccccc1F)NNC(=O)c1ccco1
Cc1ccc(C2C=C(c3ccc(Cl)cc3)Nc3nc(NC(=O)c4ccco4)nn32)cc1 (stereo not given)
CC(C)(C)S(=O)N1Cc2ccc(CO)cc2[C@@H]1CCO (stereo not given in full)
Cc1cc(C)cc(Nc2cc(C)nc3nc(-c4ccco4)nn23)c1
CC(C)(C)n1ncc2c(=O)n(Cc3ccccc3C(F)(F)F)cnc21
Cc1ccc(CN(C(=O)c2ccccc2[N+](=O)[O-])c2ccccn2)cc1
CCOC(=O)c1cnc(N2CCN(c3ccc(C)cc3C)CC2)c2ccccc12
Cc1cc(Cl)nc(SCC(=O)c2ccccc2)n1
Cc1cc(C)n(-c2nc(Nc3ccccc3)nc(-n3nc(C)cc3C)n2)n1
COc1ccc(-c2csc(NC3OC(=O)c4c3ccc(OC)c4OC)n2)cc1OC (stereo not given)
